Reference: paper PMC2643527
Results are given in words; binding and its absence hold for the method and conditions named. For some assays here: In cells and extracts the contact can be indirect. Some results given as binding are weak or reduced against the parent protein; the word gives no strength. Sequences can lack the tags named with a protein. Blank lines part the entries; values can stand above or below the molecule they belong to.

The chains behind the UniProt entries cited, without tags or fusion partners.
UniProt Q9QYJ3: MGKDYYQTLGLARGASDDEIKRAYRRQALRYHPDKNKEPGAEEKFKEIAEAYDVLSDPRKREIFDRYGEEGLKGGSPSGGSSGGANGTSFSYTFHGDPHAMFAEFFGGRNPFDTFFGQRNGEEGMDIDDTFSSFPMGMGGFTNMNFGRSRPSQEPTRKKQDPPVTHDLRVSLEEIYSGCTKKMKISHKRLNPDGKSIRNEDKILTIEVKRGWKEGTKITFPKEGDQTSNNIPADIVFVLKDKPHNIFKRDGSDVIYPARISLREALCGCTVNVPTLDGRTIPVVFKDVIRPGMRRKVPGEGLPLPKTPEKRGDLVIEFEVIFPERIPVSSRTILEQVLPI

What was measured:
GST-CSPα 1-112 (rat) = target: T1, GST-CSPα 1-112 (rat) (UniProt P60905); assay: pull-down; GST-CSPα fusion proteins immobilised on glutathione beads, incubated with 110 µg detergent-solubilised CAD cell homogenate (control, heat shocked 30 min 42°C with 5 h recovery, or 2 µM geldanamycin-treated), with or without 2 mM ATP or GDP; 20 mM MOPS, 4.5 mM Mg acetate, 150 mM KCl, 0.5% Tx100, 1 hour at 37°C; Western blot; only the target purified
T1 sequence: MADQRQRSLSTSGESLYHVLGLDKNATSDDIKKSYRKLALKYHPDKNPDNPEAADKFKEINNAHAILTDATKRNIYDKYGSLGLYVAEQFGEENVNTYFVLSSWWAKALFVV

[1] = target: T2, GST-CSPα 1-198 (full length cysteine string protein alpha) (rat) (UniProt P60905); assay: as above
T2 sequence: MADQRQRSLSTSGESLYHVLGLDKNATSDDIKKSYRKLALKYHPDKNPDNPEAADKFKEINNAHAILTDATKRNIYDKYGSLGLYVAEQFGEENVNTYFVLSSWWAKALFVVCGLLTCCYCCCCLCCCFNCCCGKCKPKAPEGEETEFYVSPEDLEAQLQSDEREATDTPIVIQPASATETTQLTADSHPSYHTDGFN

[2] = target: myc-tagged rat CSPα 1-198 expressed in CAD cells (rat) (UniProt P60905); assay: SDS-resistant dimer band on SDS-PAGE and Western blot; CAD cells transfected with CSPα, heat shocked for 40 min at 42°C and allowed to recover for 5 hours; CSPα detected by Western
[3] = target: myc-tagged rat CSPα 1-198 expressed in CAD cells (rat) (UniProt P60905); assay: SDS-resistant dimer band on SDS-PAGE and Western blot; CAD cells transfected with CSPα, not heat shocked (with or without 200 µM quercetin); 70 kDa band kept after sample buffer at 80°C for 10 min; CSPα detected by Western
[4] = target: myc-tagged rat CSPα 1-198 expressed in CAD cells (rat) (UniProt P60905); assay: condition: only after heat shock (40 min at 42°C, 5 hours recovery); SDS-resistant dimer band on SDS-PAGE and Western blot; CAD cells transfected with CSPα, heat shocked for 40 min at 42°C and allowed to recover for 5 hours; CSPα detected by Western

binding (GST-CSPα 1-112 (rat)): binds | binding [1]: binds
Molecule: Hsp40 (endogenous, CAD cell homogenate) (from UniProt Q9QYJ3 1-340)

binding [2]: binds | binding [3]: binds | binding [4]: no binding
B1: myc-tagged rat CSPα 1-198 expressed in CAD cells (protein, UniProt P60905 1-198)
chain: T2 sequence
